The list shows a part of the results. Entries with a potency or affinity are not part of this list. Where no call is shown, the source marks the result inconclusive.
experiment: activators of PrP 5'UTR-driven reporter translation, dose response, luminescence (AID 1999); details: H4 cells, PrP 5'UTR luciferase reporter; at 12 µM (top of the series) unless noted

SMILES | activation
COc1ccc(C(=O)n2c(N)nc3ccccc32)cc1OC | 55.3%
O=C(Nc1ccc(F)cc1)/C(Cl)=C/c1ccccc1 | 133%
COC(=O)c1ccccc1NC(=O)c1cccc(COc2ccccc2Cl)c1 | 28.9%
c1ccc(C2=NNC(c3ccccn3)=NN2)nc1 | -4.7%
Cc1c(-c2nc(N)nc(Nc3ccccc3F)n2)oc2ccccc12 | 47.1%
O=C(N/N=C/c1ccccc1F)c1csc2c1CCCC2 | 67.4%
COc1ccc(N2Cc3ccc(OC)c(OC)c3C2=O)cc1 | 42.1%
Cc1nn(-c2ccccn2)c2c1-c1nc(N)ncc1CC2 | 38.2%
Cn1ncc2c(Nc3ccc4ccccc4c3)ncnc21 | 63.5%
Nc1c(C(=O)N2CCCCC2)sc2nc3c(cc12)CCCC3 | 47.7%
Nc1nn(-c2cccc(F)n2)cc1-c1ccccc1 | 70.5%
CCOC(=O)c1sc(NC(=O)C(C)(C)C)cc1C | 95.2%
C=CCSc1nnc2c(n1)[nH]c1c(C)cccc12 | 99.1%
O=C1C2C3CCC(C3)C2C(=O)N1c1ccc(OS(=O)(=O)c2ccccc2)cc1 (stereo not given) | 54.3%
CCOC(=O)c1cc(-c2ccc3c(c2)OCCO3)n[nH]1 | 63.3%
CN(C)c1ccc(N=Cc2nc(-c3ccccc3)oc2OC(=O)c2cccc(Br)c2)cc1 | 43.9%
Cc1nn(-c2ccc(N3CCCCC3)nn2)c(C)c1CCC(=O)Nc1cccc(F)c1 | 57.9%
CCOC(=O)c1c(C)[nH]c(C2=NNC(=NC(C)COC)SC2)c1C (stereo not given) | 43.6%
COc1ccc(N/C=C\C(=O)c2ccc3c(c2)OCO3)cc1 | 42.2%
CC(C)c1ccc(C(=O)NNC(=O)C2C3CCC(C3)C2C(=O)O)cc1 (stereo not given) | 54.1%
Cc1ccc(/C=N/N=C/c2ccc(C)s2)s1 | 54.5%
COc1ccc(NC(=O)NC(=O)c2ccccc2)cc1 | 58.4% [at 6 µM]
CCCS(=O)(=O)NCc1cn2c(C)csc2n1 | 76.5%
O=C(NCCc1ccccc1)c1ccc(Cl)nc1 | 20.9%
COc1cc(/C=N/NC(=Nc2ccc(C)cc2)c2nc3ccccc3s2)ccc1O | 48.3%

SMILES | activation
O=[N+]([O-])c1cc(S(=O)(=O)/N=C(/c2ccccc2)N2CCOCC2)ccc1Cl | 14.2%
CCc1ccc(-c2ccc(C(=O)C(F)(F)F)[nH]2)cc1 | 80%
COc1ccc2c(c1)CC/C2=N\OC(=O)c1cccc(C)c1 | 84.4%
Cc1occc1C(=O)N=Nc1c(O)n(C)c2ccccc12 | 95.5% [at 6 µM]
CC(/C=N/NC(=O)c1cccc(F)c1)=C\c1ccccc1 | 24.9%
Cc1nn(-c2ccccc2)c(C)c1C(=O)OCC(=O)N(C)C1CCS(=O)(=O)C1 (stereo not given) | 70.4%
N=c1oc2c3c4c(cc2cc1C(=O)Nc1ccccc1)CCCN4CCC3 | 111%
Cc1ccc(-c2csc(NC(=O)C3=COCCO3)n2)cc1C | 59.5%
O=C(Nc1ccccc1)C(=O)Nc1ccc2c(c1)N(C(=O)C1CC1)CCC2 | 36.7%
Cc1c2cnn(CC(=O)NC3CCCC3)c(=O)c2c(C)n1Cc1ccccc1 | 53.7%
CCC1C(=O)n2nc(-c3ccccc3)cc2N=C1C (stereo not given) | 54.3%
Cc1ccc2nc(-c3ccc(NS(=O)(=O)c4c(C)n(C)c(=O)n(C)c4=O)cc3)sc2c1 | 70.9%
FC(F)Oc1ccc(C2N=C(c3ccccc3)NO2)cc1 (stereo not given) | 70%
CC(C)(C)n1ncc2c(=O)n(CC(=O)c3ccc(Cl)cc3)cnc21 | 67.4%
Cc1c(-c2nc(-c3ccc(C(F)(F)F)cc3)no2)n(C)oc1=O | 25.5% [at 6 µM]
Cc1ccc(-c2nc3nc4ccccc4nc3n2Cc2ccco2)cc1 | 53.1%
O=C(c1ccccn1)c1cc2ccccc2n1S(=O)(=O)c1ccccc1 | 64.2%
Cc1ccccc1-c1nnc(SCc2ccccc2)o1 | 64.5%
O=C(NCCS(=O)(=O)NCCc1ccccc1)c1ccc2c(c1)OCO2 | 24.5%
CC(C)c1nc2oc3ccccc3c(=O)c2c(=O)n1-c1ccccc1 | 70.3%
COc1ccc(-c2ccc(-c3nnn(CC(C)=O)n3)cc2)cc1 | 49.5%
O=C(c1cccc(COc2ccc(Cl)cc2Cl)c1)N1CCN(c2ccccn2)CC1 | 91.8%
COC(=O)c1ccc(OCc2cc(=O)n3ccsc3n2)cc1 | 71.8%
CCN(CC)c1nc(C)nc2c1cnn2CCc1ccccc1 | 68.8%
Cc1nn(Cc2ccccc2)c(Cl)c1C(=O)NCCc1ccccc1 | 24%

Part of the list above in order of count of non-hydrogen atoms, largest number first:
SMILES | activation
Cc1ccc2nc(-c3ccc(NS(=O)(=O)c4c(C)n(C)c(=O)n(C)c4=O)cc3)sc2c1 | 70.9%
O=C(c1cccc(COc2ccc(Cl)cc2Cl)c1)N1CCN(c2ccccn2)CC1 | 91.8%
Cc1nn(-c2ccccc2)c(C)c1C(=O)OCC(=O)N(C)C1CCS(=O)(=O)C1 (stereo not given) | 70.4%
O=C(Nc1ccccc1)C(=O)Nc1ccc2c(c1)N(C(=O)C1CC1)CCC2 | 36.7%
O=C(NCCS(=O)(=O)NCCc1ccccc1)c1ccc2c(c1)OCO2 | 24.5%
CC(C)c1nc2oc3ccccc3c(=O)c2c(=O)n1-c1ccccc1 | 70.3%
CC(C)(C)n1ncc2c(=O)n(CC(=O)c3ccc(Cl)cc3)cnc21 | 67.4%
Cc1c(-c2nc(-c3ccc(C(F)(F)F)cc3)no2)n(C)oc1=O | 25.5% [at 6 µM]
COc1ccc2c(c1)CC/C2=N\OC(=O)c1cccc(C)c1 | 84.4%
Cc1occc1C(=O)N=Nc1c(O)n(C)c2ccccc12 | 95.5% [at 6 µM]
Cc1ccccc1-c1nnc(SCc2ccccc2)o1 | 64.5%
CCC1C(=O)n2nc(-c3ccccc3)cc2N=C1C (stereo not given) | 54.3%

Two entries drawn at random from those above, as already listed:
SMILES | activation
Cc1ccc(/C=N/N=C/c2ccc(C)s2)s1 | 54.5%
Cc1nn(-c2ccccn2)c2c1-c1nc(N)ncc1CC2 | 38.2%

Continued:

SMILES | activation
CCOC(=O)c1sc2nc(NC(=O)C(C)(C)C)sc2c1C | 75.4%
C(/C=C/c1ccco1)=N/N1CCN(c2ccccc2)CC1 | 83.2%
Cc1csc2nc(CSc3nc4ccccc4o3)c(Br)n12 | 64.9%
O=C(Nc1cnc2ccccc2c1)N1CCCCC1 | 28.8%
Clc1c(CSc2nc3ccccc3o2)nc2ccccn12 | 4.2%
O=C(CCc1nnc(C2CCCCC2)o1)N1CCN(c2ccccc2F)CC1 | 118%
NC(=O)C1=C[C@H](C2CCCCC2)C[C@H](OCc2ccc(CO)cc2)O1 | 44.4%
Cc1ccc(C(=O)Nc2ccc(C(F)(F)F)n(C)c2=O)cc1 | 84.7%
c1ccc(NC2=Nc3ccccc3CS2)cc1 | 111%
Cn1c(=O)c(/C=C/c2ccccc2)nc2ccccc21 | 106%
CCOC(=O)c1cnc(SCC(=O)c2ccccc2)nc1N | 52.2%
CCOC(=O)c1sc(=NC(=O)c2ccc(C)c(C)c2)n(C)c1C | 80.9%
COc1ccc(-n2nnnc2-c2nc3ccccc3s2)cc1 | 10.7%
CCCc1cc(C(=O)NCC(C)C)no1 | 59.5%
Cc1cc(=O)oc2cc(NC(=O)c3ccccc3Cl)ccc12 | 69%
Nc1nc2ccccc2n1/N=C/c1ccc(-c2ccccc2)o1 | 60%
Cc1ccc(C(=O)OCC(=O)c2cc(C)n(CC3CCCO3)c2C)cc1 (stereo not given) | 68%
CCc1cc2c(=O)n(C(C)C(=O)OC3CCCCC3)cnc2s1 (stereo not given) | 86.1%
O=C(COc1ccc(Br)cc1Cl)NC1CCCCC1 | 85.9%
C/C(N)=C(/C#N)C(=O)CSc1nc2ccc(C)cc2[nH]1 | 76.3%
CCOC(=O)CSc1nc(-c2ccncc2)ccc1C#N | 42.6%
O=C(COC(=O)c1ccc[nH]c1=O)NCCc1ccc(Cl)cc1Cl | 52.8%
CC(C)(C)c1ccc(NC(=O)Nc2ccc(F)cc2)cc1 | 36%
O=C(Nc1ccc(Cl)cc1)c1ccc(OCC2CCCO2)cc1 (stereo not given) | 51.7%
CCc1sc(C(=O)Nc2ccc3c(c2)OCCO3)cc1Br | 59.1%

Source: PubChem BioAssay AID1999 (Broad Institute, 2009)
